Test results as given in the supplement of paper PMC12819154, “High-throughput peptide-centric local stability assay extends protein–ligand identification to membrane proteins, tissues and bacteria” (Nature Structural & Molecular Biology, 2025).
The list shows a part of the results. Most entries show no effect beyond the scatter of the controls.

Sequences of proteins named here, by UniProt entry; tags and fusion partners are left off. A change or cut given only in a name is not applied to a line headed by its entry.
UniProt Q5BL07: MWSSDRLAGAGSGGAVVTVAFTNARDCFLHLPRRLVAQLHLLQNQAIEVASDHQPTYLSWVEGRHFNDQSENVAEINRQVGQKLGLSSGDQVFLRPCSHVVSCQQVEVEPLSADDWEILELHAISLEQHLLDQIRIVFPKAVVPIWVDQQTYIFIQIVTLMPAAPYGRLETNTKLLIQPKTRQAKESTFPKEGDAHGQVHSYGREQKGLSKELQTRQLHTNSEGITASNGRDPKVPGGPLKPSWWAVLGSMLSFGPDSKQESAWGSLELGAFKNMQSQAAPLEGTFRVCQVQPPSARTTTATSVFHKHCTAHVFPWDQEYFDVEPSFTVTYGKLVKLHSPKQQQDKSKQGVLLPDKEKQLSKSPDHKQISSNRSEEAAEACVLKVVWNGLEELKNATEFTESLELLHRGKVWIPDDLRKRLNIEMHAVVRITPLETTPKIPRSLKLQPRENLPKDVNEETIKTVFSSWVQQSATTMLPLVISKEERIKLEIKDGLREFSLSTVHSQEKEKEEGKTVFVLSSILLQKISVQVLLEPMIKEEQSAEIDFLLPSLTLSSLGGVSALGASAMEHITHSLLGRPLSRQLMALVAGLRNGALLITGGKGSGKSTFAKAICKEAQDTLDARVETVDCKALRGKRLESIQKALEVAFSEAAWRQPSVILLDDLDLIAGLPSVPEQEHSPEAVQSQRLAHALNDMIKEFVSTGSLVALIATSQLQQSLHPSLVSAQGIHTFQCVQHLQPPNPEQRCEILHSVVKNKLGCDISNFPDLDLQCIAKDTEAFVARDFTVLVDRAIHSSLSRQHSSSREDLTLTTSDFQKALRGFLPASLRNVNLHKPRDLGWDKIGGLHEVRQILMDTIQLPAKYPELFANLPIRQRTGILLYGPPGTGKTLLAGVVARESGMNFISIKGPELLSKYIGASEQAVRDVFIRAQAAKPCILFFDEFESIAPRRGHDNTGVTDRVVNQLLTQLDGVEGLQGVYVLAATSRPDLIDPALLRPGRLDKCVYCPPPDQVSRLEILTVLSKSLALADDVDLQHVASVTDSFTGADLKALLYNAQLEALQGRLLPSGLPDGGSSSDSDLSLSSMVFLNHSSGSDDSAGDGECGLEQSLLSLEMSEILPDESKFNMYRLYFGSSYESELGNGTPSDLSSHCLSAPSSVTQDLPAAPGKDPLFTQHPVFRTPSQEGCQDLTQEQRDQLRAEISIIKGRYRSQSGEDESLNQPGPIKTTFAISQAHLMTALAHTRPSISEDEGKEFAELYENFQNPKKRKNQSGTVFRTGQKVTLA
UniProt Q3UV70: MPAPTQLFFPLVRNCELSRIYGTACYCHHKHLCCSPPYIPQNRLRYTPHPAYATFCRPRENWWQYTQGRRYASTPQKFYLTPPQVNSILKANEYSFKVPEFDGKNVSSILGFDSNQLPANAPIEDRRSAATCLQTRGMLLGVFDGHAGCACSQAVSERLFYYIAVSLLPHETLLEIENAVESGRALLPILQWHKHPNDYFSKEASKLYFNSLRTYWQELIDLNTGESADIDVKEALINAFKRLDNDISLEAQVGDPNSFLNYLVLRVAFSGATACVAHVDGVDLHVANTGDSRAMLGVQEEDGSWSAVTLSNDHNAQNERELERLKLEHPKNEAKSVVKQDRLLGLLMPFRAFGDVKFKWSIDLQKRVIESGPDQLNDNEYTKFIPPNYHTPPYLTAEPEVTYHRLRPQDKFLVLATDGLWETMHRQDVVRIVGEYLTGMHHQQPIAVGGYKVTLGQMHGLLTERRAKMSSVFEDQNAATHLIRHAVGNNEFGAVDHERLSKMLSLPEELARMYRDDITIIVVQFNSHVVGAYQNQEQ
UniProt Q4FK66: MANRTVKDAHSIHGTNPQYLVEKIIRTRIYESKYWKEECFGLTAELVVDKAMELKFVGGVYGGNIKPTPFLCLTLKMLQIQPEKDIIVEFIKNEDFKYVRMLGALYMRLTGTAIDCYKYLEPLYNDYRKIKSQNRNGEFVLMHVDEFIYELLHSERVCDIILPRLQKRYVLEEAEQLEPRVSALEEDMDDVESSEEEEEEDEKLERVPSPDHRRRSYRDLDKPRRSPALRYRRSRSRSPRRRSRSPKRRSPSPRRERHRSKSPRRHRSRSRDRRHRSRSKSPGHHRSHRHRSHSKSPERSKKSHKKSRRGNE
UniProt Q3UFK8: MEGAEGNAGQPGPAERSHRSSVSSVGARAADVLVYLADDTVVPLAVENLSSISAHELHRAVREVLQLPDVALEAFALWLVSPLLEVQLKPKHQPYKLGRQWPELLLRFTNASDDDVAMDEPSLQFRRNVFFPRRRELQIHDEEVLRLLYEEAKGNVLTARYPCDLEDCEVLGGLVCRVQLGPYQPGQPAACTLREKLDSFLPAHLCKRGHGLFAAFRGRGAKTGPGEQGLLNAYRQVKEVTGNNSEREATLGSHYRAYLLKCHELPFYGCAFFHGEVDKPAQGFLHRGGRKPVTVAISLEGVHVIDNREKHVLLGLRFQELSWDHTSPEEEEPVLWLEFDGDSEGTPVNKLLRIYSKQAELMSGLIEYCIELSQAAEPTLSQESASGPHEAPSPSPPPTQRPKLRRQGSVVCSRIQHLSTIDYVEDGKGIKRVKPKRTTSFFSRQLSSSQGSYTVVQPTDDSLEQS
UniProt Q3UA37: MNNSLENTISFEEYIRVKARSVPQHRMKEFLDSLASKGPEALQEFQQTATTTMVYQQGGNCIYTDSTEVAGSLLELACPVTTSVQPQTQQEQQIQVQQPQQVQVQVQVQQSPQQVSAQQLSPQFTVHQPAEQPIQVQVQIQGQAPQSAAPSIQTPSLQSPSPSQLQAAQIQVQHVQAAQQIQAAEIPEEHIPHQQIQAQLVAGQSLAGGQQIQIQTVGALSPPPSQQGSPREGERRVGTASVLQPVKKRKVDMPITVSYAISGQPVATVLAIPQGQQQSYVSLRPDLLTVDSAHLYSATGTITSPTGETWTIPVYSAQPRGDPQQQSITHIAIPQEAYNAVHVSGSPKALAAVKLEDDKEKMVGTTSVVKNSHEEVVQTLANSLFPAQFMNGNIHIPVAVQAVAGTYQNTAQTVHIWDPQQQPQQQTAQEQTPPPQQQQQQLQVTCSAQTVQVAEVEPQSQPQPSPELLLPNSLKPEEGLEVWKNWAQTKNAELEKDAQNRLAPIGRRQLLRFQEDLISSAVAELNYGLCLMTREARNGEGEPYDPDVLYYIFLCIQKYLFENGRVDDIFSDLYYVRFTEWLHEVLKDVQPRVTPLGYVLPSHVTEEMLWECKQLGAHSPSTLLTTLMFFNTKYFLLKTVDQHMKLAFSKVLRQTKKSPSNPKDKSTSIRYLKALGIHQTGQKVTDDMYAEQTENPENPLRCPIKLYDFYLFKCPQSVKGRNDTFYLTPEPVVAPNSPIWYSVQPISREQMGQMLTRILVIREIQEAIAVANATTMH

What follows are targets tested with CN[C@@H]1C[C@H]2O[C@@](C)([C@@H]1OC)n1c3ccccc3c3c4c(c5c6ccccc6n2c5c31)C(=O)NC4 [staurosporine] (assay: log2 fold change of tryptic peptide abundance, ligand vs vehicle (limited proteolysis) (log2 ratio); higher = more trypsin-susceptible (destabilized)). Conditions: ligand concentration: 20 uM; sample: mouse liver crude lysate; replicate design: treated separately.

Target	log2 fold change
UniProt Q5BL07 (peptide sequence: AIHSSLSR, peptide start residue: 792)	-0.246
UniProt Q3UV70 (peptide sequence: VTLGQMHGLLTER, peptide start residue: 453)	0.208
UniProt Q4FK66 (peptide sequence: RYVLEEAEQLEPR, peptide start residue: 168)	0.25
UniProt Q3UFK8 (peptide sequence: IQHLSTIDYVEDGK, peptide start residue: 415)	-0.169
UniProt Q3UA37 (peptide sequence: NAELEKDAQNR, peptide start residue: 491)	0.316
UniProt Q3UHD6 (peptide sequence: KMVMYLNMLR, peptide start residue: 408)	0.383
